Data published in publication PMC13132431.
Results are given in words; binding and its absence hold for the method and conditions named. Binding seen in cells or lysates may run through a third protein. Here binding means that the protein was enriched with, or labelled near, the bait; the list need not be complete. For some of these results: A no says only that the protein was not detected with the bait. Where a sequence is shown, tags or fusion partners need not be part of it.

Sequences of proteins named here, by UniProt entry; tags and fusion partners are left off. A change or cut given only in a name is not applied to a line headed by its entry.
UniProt Q9LZ30: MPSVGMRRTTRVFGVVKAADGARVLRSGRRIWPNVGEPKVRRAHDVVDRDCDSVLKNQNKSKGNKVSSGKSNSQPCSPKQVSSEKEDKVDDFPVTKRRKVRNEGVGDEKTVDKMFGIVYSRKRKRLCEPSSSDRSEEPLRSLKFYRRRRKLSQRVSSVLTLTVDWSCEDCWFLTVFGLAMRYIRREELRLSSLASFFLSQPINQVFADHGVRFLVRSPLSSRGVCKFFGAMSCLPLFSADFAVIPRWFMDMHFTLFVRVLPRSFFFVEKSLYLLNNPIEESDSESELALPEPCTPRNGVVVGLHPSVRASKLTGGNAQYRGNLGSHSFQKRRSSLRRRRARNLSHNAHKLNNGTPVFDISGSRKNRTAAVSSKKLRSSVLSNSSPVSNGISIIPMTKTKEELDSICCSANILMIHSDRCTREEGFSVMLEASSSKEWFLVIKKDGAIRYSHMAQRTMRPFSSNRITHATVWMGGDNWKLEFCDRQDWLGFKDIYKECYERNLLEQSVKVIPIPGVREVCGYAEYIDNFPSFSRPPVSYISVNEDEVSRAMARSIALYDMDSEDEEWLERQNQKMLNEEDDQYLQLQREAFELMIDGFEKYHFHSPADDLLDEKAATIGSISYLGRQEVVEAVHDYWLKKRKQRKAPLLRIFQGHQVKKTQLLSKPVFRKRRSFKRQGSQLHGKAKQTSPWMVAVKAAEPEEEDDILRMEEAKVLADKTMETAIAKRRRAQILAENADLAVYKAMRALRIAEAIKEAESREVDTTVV
UniProt F4IPJ1: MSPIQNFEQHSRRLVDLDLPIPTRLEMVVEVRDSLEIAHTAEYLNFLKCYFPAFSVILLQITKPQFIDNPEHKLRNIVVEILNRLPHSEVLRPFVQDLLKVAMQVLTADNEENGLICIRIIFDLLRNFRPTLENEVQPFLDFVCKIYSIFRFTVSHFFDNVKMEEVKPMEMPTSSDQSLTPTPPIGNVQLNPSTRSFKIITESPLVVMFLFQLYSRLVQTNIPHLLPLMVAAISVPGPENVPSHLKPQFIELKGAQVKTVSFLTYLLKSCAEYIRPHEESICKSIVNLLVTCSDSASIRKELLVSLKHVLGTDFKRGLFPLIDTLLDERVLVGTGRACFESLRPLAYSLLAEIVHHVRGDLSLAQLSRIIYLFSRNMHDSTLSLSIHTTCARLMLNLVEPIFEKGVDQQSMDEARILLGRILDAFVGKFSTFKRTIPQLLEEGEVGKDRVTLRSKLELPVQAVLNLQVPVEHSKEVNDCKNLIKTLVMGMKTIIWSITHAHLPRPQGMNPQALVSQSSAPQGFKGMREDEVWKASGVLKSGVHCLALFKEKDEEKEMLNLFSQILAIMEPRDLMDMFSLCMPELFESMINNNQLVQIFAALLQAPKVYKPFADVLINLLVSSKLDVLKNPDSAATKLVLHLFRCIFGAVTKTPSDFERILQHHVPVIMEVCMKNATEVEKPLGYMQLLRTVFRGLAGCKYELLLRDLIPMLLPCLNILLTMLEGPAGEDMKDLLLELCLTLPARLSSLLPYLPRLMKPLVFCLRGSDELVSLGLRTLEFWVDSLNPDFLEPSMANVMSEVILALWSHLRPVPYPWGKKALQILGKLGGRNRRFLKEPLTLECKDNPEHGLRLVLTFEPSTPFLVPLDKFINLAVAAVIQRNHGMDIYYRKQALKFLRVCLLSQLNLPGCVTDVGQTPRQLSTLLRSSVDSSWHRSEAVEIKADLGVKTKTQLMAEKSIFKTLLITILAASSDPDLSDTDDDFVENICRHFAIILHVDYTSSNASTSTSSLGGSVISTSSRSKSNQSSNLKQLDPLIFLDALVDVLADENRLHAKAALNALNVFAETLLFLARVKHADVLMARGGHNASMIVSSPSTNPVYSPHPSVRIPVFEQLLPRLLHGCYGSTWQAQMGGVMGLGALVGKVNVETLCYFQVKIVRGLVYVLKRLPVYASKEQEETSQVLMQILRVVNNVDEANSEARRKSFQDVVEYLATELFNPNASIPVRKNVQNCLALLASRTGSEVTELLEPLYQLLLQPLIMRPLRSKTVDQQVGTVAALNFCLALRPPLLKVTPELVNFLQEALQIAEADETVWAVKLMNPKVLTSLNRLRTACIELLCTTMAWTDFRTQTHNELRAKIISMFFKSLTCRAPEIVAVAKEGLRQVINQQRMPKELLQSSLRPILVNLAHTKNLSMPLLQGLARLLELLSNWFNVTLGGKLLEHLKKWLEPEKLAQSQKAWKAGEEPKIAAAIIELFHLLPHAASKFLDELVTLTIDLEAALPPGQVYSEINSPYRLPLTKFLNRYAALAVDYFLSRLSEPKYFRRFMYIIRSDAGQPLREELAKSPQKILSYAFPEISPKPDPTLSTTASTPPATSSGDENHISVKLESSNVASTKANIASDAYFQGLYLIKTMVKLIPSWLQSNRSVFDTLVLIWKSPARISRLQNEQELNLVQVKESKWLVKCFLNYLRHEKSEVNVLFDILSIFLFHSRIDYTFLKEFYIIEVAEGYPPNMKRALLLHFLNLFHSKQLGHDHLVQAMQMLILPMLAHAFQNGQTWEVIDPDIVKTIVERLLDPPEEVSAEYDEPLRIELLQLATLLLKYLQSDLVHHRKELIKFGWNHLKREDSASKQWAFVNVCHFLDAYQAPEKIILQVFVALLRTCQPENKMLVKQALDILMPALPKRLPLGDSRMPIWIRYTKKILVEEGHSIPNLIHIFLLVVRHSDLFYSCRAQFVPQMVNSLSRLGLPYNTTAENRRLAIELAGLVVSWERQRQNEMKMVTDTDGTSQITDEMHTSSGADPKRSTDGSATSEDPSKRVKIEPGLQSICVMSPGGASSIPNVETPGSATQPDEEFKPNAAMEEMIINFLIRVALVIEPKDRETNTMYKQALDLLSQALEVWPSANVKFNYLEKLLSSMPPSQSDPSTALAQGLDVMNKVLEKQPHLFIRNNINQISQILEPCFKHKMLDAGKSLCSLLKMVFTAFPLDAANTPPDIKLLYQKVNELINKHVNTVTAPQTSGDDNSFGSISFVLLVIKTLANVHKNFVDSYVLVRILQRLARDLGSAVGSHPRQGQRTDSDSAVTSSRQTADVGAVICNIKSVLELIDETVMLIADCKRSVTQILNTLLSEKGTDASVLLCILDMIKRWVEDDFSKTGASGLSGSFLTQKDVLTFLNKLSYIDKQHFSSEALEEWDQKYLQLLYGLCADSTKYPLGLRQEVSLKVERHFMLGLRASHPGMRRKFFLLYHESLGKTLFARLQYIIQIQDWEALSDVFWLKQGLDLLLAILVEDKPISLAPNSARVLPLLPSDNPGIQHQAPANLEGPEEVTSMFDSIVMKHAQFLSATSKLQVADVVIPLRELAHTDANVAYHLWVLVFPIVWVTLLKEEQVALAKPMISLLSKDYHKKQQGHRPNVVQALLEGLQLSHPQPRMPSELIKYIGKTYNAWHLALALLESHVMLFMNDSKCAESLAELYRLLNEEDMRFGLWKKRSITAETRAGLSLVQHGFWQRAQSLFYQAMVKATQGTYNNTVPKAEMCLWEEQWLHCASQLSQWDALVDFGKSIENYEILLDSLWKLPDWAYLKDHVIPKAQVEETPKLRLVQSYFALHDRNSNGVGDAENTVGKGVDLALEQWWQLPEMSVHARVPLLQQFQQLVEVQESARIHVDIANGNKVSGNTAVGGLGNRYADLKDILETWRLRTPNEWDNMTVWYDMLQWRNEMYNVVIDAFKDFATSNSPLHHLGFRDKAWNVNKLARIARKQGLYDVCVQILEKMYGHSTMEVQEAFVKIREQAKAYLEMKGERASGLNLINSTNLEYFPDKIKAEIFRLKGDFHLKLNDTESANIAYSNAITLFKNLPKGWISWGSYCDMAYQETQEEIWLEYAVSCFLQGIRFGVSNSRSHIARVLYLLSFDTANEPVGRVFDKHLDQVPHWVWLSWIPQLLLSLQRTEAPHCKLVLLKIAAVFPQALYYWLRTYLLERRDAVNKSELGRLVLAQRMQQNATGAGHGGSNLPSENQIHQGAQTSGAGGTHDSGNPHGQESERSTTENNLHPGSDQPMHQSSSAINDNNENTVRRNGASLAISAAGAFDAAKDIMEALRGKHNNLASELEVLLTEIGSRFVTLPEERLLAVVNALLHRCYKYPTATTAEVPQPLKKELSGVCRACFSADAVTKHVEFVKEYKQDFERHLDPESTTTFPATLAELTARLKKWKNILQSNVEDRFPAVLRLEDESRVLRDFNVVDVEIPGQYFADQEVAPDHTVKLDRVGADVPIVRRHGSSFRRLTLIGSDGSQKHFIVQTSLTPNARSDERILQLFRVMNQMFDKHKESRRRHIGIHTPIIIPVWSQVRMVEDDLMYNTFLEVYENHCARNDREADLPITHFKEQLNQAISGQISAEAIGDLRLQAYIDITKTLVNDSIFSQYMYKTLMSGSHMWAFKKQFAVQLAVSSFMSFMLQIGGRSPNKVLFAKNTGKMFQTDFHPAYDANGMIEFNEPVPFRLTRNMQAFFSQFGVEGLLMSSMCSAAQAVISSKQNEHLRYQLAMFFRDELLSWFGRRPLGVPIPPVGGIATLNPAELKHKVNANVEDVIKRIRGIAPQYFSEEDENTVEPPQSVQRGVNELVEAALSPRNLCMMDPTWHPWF

Experiments:
[1] = target: T1, TELOMERE REPEAT BINDING FACTOR 1 (TRB1) fused to YFP, expressed under the Cauliflower Mosaic Virus 35S promoter (Arabidopsis thaliana) (UniProt Q8VWK4); assay: affinity purification with mass spectrometry; GFP-trap agarose beads on nuclear extracts of transgenic plants expressing 35Sp-TRB1 or 35Sp-TRB3 fused to YFP/GFP; 35Sp-EDS1 fusion as background control; extracts treated with DNase I and RNase A; 20 mM Tris-HCl pH 7.4, 150 mM NaCl, 0.1% Triton X-100, 2 mM EDTA, 4°C, 2.5 h; biological triplicates; label-free quantification, ANOVA with HSD, FDR < 0.05
T1 sequence: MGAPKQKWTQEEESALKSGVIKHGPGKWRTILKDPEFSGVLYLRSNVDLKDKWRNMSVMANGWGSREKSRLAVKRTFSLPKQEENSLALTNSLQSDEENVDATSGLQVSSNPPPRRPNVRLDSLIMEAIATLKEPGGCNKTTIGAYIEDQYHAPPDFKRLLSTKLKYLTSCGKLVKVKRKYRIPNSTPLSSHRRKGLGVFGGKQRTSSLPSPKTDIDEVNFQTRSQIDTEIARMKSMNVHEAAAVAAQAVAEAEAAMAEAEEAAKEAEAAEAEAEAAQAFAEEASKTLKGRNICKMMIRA

[2] = target: T2, TELOMERE REPEAT BINDING FACTOR 3 (TRB3) fused to YFP, expressed under the Cauliflower Mosaic Virus 35S promoter (Arabidopsis thaliana) (UniProt Q9M2X3); assay: as above
T2 sequence: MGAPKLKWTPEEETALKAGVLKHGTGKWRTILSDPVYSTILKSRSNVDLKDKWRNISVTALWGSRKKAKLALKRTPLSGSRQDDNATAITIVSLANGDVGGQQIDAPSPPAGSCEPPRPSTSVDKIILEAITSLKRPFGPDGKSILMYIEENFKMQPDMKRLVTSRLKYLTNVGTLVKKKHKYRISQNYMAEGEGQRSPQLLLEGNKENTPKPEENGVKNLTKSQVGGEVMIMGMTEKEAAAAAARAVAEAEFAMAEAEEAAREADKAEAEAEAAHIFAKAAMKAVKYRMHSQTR

| binding [1] | binding [2] | Substance |
| --- | --- | --- |
| binds | no binding | EPCR1 (PEAT complex component) |
| binds |  | EPCR2 (PEAT complex component) (from UniProt Q9LZ30) |
| binds | binds | NAC52 |
| binds | binds | TRA1A (NuA4 complex component) (from UniProt F4IPJ1) |
